Measurements reported in PubChem BioAssay AID1259405 (NCATS, 2018).
Test: 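Silenced genes that increase secreted GFP made by CHO cells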 (primary screen). System: Chinese hamster CHO-K1 ovary cells with stable secreted eGFP expression. Reagents: single siRNA against mouse genes, 0.8 pmol siRNA per well (2 µl of 400 nM stock). Timing: 3 days. Read-out: 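Per-well intracellular GFP measured by laser scanning cytometry, plus viability from ATP luminescence, each relative to plate median of non-targeting control wells, in %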. Direction: GFP, % of control: higher = more GFP per well, higher productivity; viability (ATP), % of control: higher = more viable cells (more ATP). Hit rule: 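Called active when intracellular GFP, relative to negative control, is at or above 120%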.
The whole screen tested about 50,000 reagents; below is an unselected part. About 4,000 of them (8%) were called active. 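Mouse siRNA library applied to hamster cells; one well for each siRNA.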 Unmarked entries are inactive. The numbers tell different reagents against one gene apart.

{"gene": "1810055G02Rik", "reagent no.": 1, "GFP, % of control": 24.7, "viability (ATP), % of control": 57.2}
{"gene": "1810055G02Rik", "reagent no.": 2, "GFP, % of control": 97.1, "viability (ATP), % of control": 70.5}
{"gene": "1810055G02Rik", "reagent no.": 3, "GFP, % of control": 61.1, "viability (ATP), % of control": 74.9}
{"gene": "Or13p10", "reagent no.": 1, "GFP, % of control": "136 (active)", "viability (ATP), % of control": 84.4}
{"gene": "Or13p10", "reagent no.": 2, "GFP, % of control": 59.1, "viability (ATP), % of control": 70.6}
{"gene": "Or13p10", "reagent no.": 3, "GFP, % of control": 54.4, "viability (ATP), % of control": 55.1}
{"gene": "Gramd1a", "reagent no.": 1, "GFP, % of control": 58.6, "viability (ATP), % of control": 86.8}
{"gene": "Gramd1a", "reagent no.": 2, "GFP, % of control": 31.4, "viability (ATP), % of control": 64.1}
{"gene": "Gramd1a", "reagent no.": 3, "GFP, % of control": 54.4, "viability (ATP), % of control": 35.5}
{"gene": "Cchcr1", "reagent no.": 1, "GFP, % of control": 75.7, "viability (ATP), % of control": 87.6}
{"gene": "Cchcr1", "reagent no.": 2, "GFP, % of control": 54.1, "viability (ATP), % of control": 52.1}
{"gene": "Cchcr1", "reagent no.": 3, "GFP, % of control": 86.8, "viability (ATP), % of control": 49.4}
{"gene": "Ppp1r14c", "reagent no.": 1, "GFP, % of control": 63.2, "viability (ATP), % of control": 83}
{"gene": "Ppp1r14c", "reagent no.": 2, "GFP, % of control": 99.8, "viability (ATP), % of control": 77.6}
{"gene": "Ppp1r14c", "reagent no.": 3, "GFP, % of control": 107, "viability (ATP), % of control": 91}
{"gene": "Cox7c", "reagent no.": 1, "GFP, % of control": "138 (active)", "viability (ATP), % of control": 116}
{"gene": "Cox7c", "reagent no.": 2, "GFP, % of control": 46.1, "viability (ATP), % of control": 48.3}
{"gene": "Cox7c", "reagent no.": 3, "GFP, % of control": 78.9, "viability (ATP), % of control": 65.1}
{"gene": "Or8k16", "reagent no.": 1, "GFP, % of control": 67.3, "viability (ATP), % of control": 62.5}
{"gene": "Or8k16", "reagent no.": 2, "GFP, % of control": 80.4, "viability (ATP), % of control": 73.1}
{"gene": "Or8k16", "reagent no.": 3, "GFP, % of control": 81.7, "viability (ATP), % of control": 53.5}
{"gene": "Pth", "reagent no.": 1, "GFP, % of control": 56.4, "viability (ATP), % of control": 52.3}
{"gene": "Pth", "reagent no.": 2, "GFP, % of control": 38.1, "viability (ATP), % of control": 42.9}
{"gene": "Pth", "reagent no.": 3, "GFP, % of control": 69, "viability (ATP), % of control": 64.6}
{"gene": "Fam161a", "reagent no.": 1, "GFP, % of control": 89.2, "viability (ATP), % of control": 75.3}
{"gene": "Fam161a", "reagent no.": 2, "GFP, % of control": 84.6, "viability (ATP), % of control": 100}
{"gene": "Fam161a", "reagent no.": 3, "GFP, % of control": 53.7, "viability (ATP), % of control": 57.7}
{"gene": "Nop9", "reagent no.": 1, "GFP, % of control": 73, "viability (ATP), % of control": 75.3}
{"gene": "Nop9", "reagent no.": 2, "GFP, % of control": 70.8, "viability (ATP), % of control": 76.2}
{"gene": "Nop9", "reagent no.": 3, "GFP, % of control": 73.8, "viability (ATP), % of control": 92}
{"gene": "Mfsd6l", "reagent no.": 1, "GFP, % of control": 95.1, "viability (ATP), % of control": 123}
{"gene": "Mfsd6l", "reagent no.": 2, "GFP, % of control": 94.9, "viability (ATP), % of control": 85.1}
{"gene": "Mfsd6l", "reagent no.": 3, "GFP, % of control": "158 (active)", "viability (ATP), % of control": 140}
{"gene": "Notch1", "reagent no.": 1, "GFP, % of control": 112, "viability (ATP), % of control": 72.8}
{"gene": "Notch1", "reagent no.": 2, "GFP, % of control": 87.9, "viability (ATP), % of control": 61.3}
{"gene": "Notch1", "reagent no.": 3, "GFP, % of control": 116, "viability (ATP), % of control": 143}
{"gene": "Dmc1", "reagent no.": 1, "GFP, % of control": 39.9, "viability (ATP), % of control": 69.6}
{"gene": "Dmc1", "reagent no.": 2, "GFP, % of control": 50.1, "viability (ATP), % of control": 61}
{"gene": "Dmc1", "reagent no.": 3, "GFP, % of control": 67.7, "viability (ATP), % of control": 55}
{"gene": "Smarcd2", "reagent no.": 1, "GFP, % of control": "135 (active)", "viability (ATP), % of control": 126}
{"gene": "Smarcd2", "reagent no.": 2, "GFP, % of control": 81.9, "viability (ATP), % of control": 65.5}

Only “GFP, % of control” (4 entries from above):
Mfsd6l #1: 95.1
Mfsd6l #2: 94.9
Mfsd6l #3: 158 (active)
Notch1 #1: 112
